# In all, about 410,000 compounds went through this assay and about 18,000 (4.4%) were called active. The shares of active, inactive and inconclusive entries below differ from those in the screen. No stated cut-off is given here; in the data, active means activity change below about -60%; inconclusive means no clear call, values can overlap the other calls; inactive means above about -39%. Some compounds were tested as several samples or in several runs, with calls that do not always agree.
# Assay: qHTS Assay for inhibitors of the human cytomegalovirus (HCMV)
# Details: HFF cells, HCMV-luciferase reporter, 72 h; at 57.5 µM; stronger effect = lower value
# Summary of the method: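 Steps: HFFs plated, 16 h 37C; compounds added; HCMV-luciferase added to MOI 1 PFU/cell; 72 h 37C; OneGlo reagent, 5 min room temperature; luminescence read, normalized to controls.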
# On the % scale 0 is the no-effect control and ±100 the full control effect.
row,Structure (SMILES),"activity change, negative = inhibition"
2,CC1C/C(=C\c2cccnc2)C(=O)/C(=C/c2cccnc2)C1 (stereo unspecified),active: -101%
3,CC(=O)Nc1cccc(OCC(=O)Nc2ccc(F)cc2)c1,inactive: 88.4%
4,COc1ccc(-n2cc(-c3ccccc3)c3c(NCCc4ccc(OC)c(OC)c4)ncnc32)cc1,inconclusive: -42.4%
5,O=[N+]([O-])c1cc(-n2cccc2)ccc1N1CCOCC1,inconclusive: -47.4%
6,Cc1ccc(S(=O)(=O)NCc2ccccc2)cc1C(=O)N1CCCC(C(F)(F)F)C1 (stereo unspecified),inconclusive: -46.2%
7,CC1(C)Cc2c(cnn2-c2ccccc2)C(NC(=O)CCN2CCCC2=O)C1 (stereo unspecified),inconclusive: -48.2%
8,COc1ccc(Cl)cc1NC(=O)CSc1nc(NS(=O)(=O)c2ccccc2)cc(=O)[nH]1,inconclusive: -41.9%
9,O=C(Nc1ccc(Oc2nnc(-c3ccccc3)c3ccccc23)cc1)c1ccccc1,active: -60%
10,O=C(Nc1ccc(S(=O)(=O)N2CCCCC2)cc1)c1ccc(Cl)nc1,active: -75.5%
11,COc1ccc(C(=O)c2oc3ccc(OC)cc3c2N)cc1,inconclusive: -46.9%
12,COc1cccc(C2=CC(c3cccc(OC)c3OC)n3nnnc3N2)c1 (stereo unspecified),inconclusive: -58.9%
13,CN(C)c1ccc(N2C(=O)CSC2=S)cc1,inconclusive: -52.9%
14,COc1ccccc1NS(=O)(=O)c1cccc(C(=O)N/N=C/c2c(CO)cnc(C)c2O)c1,inactive: -8.6%
15,Cc1c(C(=S)Nc2ccccc2)cnn1-c1ccc([N+](=O)[O-])cc1,inconclusive: -52.2%
16,CCC(=O)N/N=C/c1ccc(-c2ccc(Cl)cc2)o1,inactive: 69%
17,CCOCCCn1c(SCC(=O)Nc2ccc(C)cc2)nc2ccccc2c1=O,inconclusive: -53.9%
18,Cc1cc(C)n(C(C)CC(=O)NCc2ccc(N(C)C)cc2)n1 (stereo unspecified),inactive: 7.56%
19,COc1ccc(NS(=O)(=O)c2ccc(NC(C)=O)cc2)cc1OC,active: -79.8%
20,CCS(=O)(=O)c1cc([N+](=O)[O-])c(Sc2ccccc2NC(C)=O)s1,inconclusive: -56.5%
21,Cc1noc(C)c1CSc1nc2ccccc2c(=O)n1-c1ccccc1,inactive: 64.3%
22,COc1ccc(CC(=O)Nc2c(C(=O)N3CCN(c4ncccn4)CC3)oc3ccccc23)cc1OC,inconclusive: -42.5%

row,Structure (SMILES),"activity change, negative = inhibition"
1,O=C1CCC(=O)N1c1ccccc1OS(=O)(=O)c1ccccc1,active: -97.1%
2,CCCc1cc(=O)[nH]c(SCCc2ccccc2)n1,inactive: 34.4%
3,COc1cccc(-c2cc(C(=O)Nc3ccc(N(C)C(C)=O)cc3)c3cc(Br)ccc3n2)c1,active: -96.6%
4,COc1ccc(-c2ccc(C#N)c(SCC(=O)Nc3sc4c(c3C#N)CCC4)n2)cc1OC,active: -87.9%
5,COc1ccc(NC(=O)COc2ccc(S(=O)(=O)NC3CCCCC3)cc2)cc1OC,inactive: 2.76%
6,O=C(NCc1ccc(F)cc1)c1c(O)nc2ccccn2c1=O,active: -61.5%
7,Cc1cccc(NC(=O)c2cc(=O)[nH]c3ccccc23)c1,inactive: -17.2%
8,O=C1/C(=C/c2ccccc2)SC(=S)N1C1CCS(=O)(=O)C1 (stereo unspecified),inconclusive: -58.9%
9,Cc1ccc(OCCn2c(=S)[nH]c3ccccc32)c(C(C)C)c1,inconclusive: -58.5%
10,Cc1cc(C)c(NC(=S)NCC2CCN(C(C)c3ccccc3)C2)c(C)c1 (stereo unspecified),inconclusive: -47.4%
11,Fc1ccc(-c2csc3ncnc(N4CCN(Cc5ccccc5)CC4)c23)cc1,inconclusive: -40.6%
12,Cc1sc(NC(=O)c2ccccc2)c(C(c2ccccn2)N2CCN(CCO)CC2)c1C (stereo unspecified),active: -62.4%
13,COc1cccc(CN(C)C[C@@H]2OCc3ccccc3-c3c(n(C)c4ccccc34)C(=O)N([C@@H](C)CO)C[C@H]2C)c1,active: -105%
14,COCCNC(=O)Cc1c(C)c2c(cc(C)c3c(C(C)(C)C)coc32)oc1=O,active: -61.2%
15,COc1ccc(CC(=O)O/N=C(\N)c2ccc(Br)cc2)cc1OC,inconclusive: -40.7%
16,Cc1cccc(CSc2nc3c(c(=O)[nH]2)C(c2cccc(O)c2)CC(=O)N3)c1 (stereo unspecified),inactive: 14.1%
17,COc1ccc(/C=N/NC(=O)c2ccccc2OCc2ccccc2)c(OC)c1,inconclusive: -52.5%
18,CSc1ccc2c(c1)C(N1CCN(C)CC1)Cc1ccccc1S2 (stereo unspecified),active: -75.2%
19,CC(C)c1ccccc1OCC(=O)Nc1ccc2[nH]ncc2c1,inconclusive: -45.5%
20,Nc1ccc(Cl)cc1C(=O)c1ccc[nH]1,inconclusive: -50.7%
21,Fc1cccc(Cc2noc(CN3CCOCC3)n2)c1,inconclusive: -42.4%
22,COc1ccc(Cc2nnc(NC(=O)CSc3ccc(C)cc3)s2)cc1OC,inconclusive: -43.5%

row,Structure (SMILES),"activity change, negative = inhibition"
1,Cc1c(C(=O)OC2CCCC2)[nH]c2c1C(=O)CC(c1ccco1)C2 (stereo unspecified),active: -94.8%
2,Cc1cccc(NC(=O)CN(C)S(=O)(=O)c2cccs2)c1,inactive: 4.85%
3,Cc1ccc(S(=O)(=O)N2CCC(C(=O)Nc3ccccc3N3CCCC3)CC2)c(C)c1,inconclusive: -42.9%
4,Cc1cccc(C)c1NC(=O)CNC(=O)C(C)N1CCN(c2cccc(Cl)c2)CC1 (stereo unspecified),inactive: -36.9%
5,Cc1cc(Cl)ccc1OCC(=O)O,inconclusive: -51.2%
6,Oc1ccccc1CN1CCC(C(O)(c2ccccc2)c2ccccc2)CC1,inconclusive: -47.7%
7,COc1ccc(CC(C(=O)Nc2cccc(F)c2)c2nn[nH]n2)c(OC)c1 (stereo unspecified),inactive: -8.15%
8,COc1cc(/C=N/NC(=O)CN(Cc2ccccc2)S(=O)(=O)c2ccc3c(c2)OCCO3)ccc1O,inactive: -16.6%
9,Cc1ccc(S(=O)(=O)N2CCOC2CNC(=O)C(=O)NCCCc2ccccc2)cc1 (stereo unspecified),inconclusive: -51.1%
10,CCOc1c2ccc(C(=O)NCc3ccc(C)cc3)cc2nn1CC,inconclusive: -43.6%
11,CCN(CC)Cc1nc2c(c(=O)[nH]1)C(CC)(CC)Cc1ccccc1-2,inconclusive: -44.8%
12,COc1ccc(/C=N/NC(=O)c2[nH]c3ccc(C)cc3c2-c2ccccc2)c(C(=O)O)c1OC,inactive: -18.3%
13,CCNc1nc(SCC(=O)OC)nc(N2CCOCC2)n1,inactive: 40.1%
14,CCOC(=O)c1nn(-c2ccc(Cl)cc2)c2nc(Nc3ccccc3)cc(=O)n12,inconclusive: -55.2%
15,C/C(=N/NC(=O)CSc1nc2ccccc2n1C)c1ccc(O)cc1,inconclusive: -43.4%
16,COc1ccc(OC)c(C2CC(=O)N3CN(c4ccc(C)c(Cl)c4)CSC3=C2C#N)c1 (stereo unspecified),inconclusive: -45.1%
17,COc1ccc(NC(=O)CC2SC(=NCC3CCCO3)NC2=O)c([N+](=O)[O-])c1 (stereo unspecified),inconclusive: -57.8%
18,COc1ccc2[nH]cc(C(=O)CCl)c2c1,active: -99.6%
19,CN(CC(=O)Nc1ccc(F)cc1)C(=O)CN1C(=O)NC(CCc2ccccc2)C1=O (stereo unspecified),inconclusive: -42.9%
20,CCc1cc2cc(C)ccc2nc1SCC(=O)N1CC(=O)Nc2ccccc21,inconclusive: -42.7%
21,COc1ccc(-n2cnc3cc([N+](=O)[O-])ccc32)cc1,inconclusive: -58%
22,Cc1cc(C)cc(NS(=O)(=O)c2ccc3c(c2)CCCN3C(=O)C2CCC2)c1,inactive: -29.6%

row,Structure (SMILES),"activity change, negative = inhibition"
1,COc1ccc(-n2ncc(C(=O)N3CCc4ccccc4C3)c2C2CCN(C(=O)OC(C)(C)C)CC2)cc1,inconclusive: 0%
2,COc1ccc(NC(=O)c2ccc(-c3ccc(F)cc3)o2)cc1OC,inactive: -24.4%
3,Cc1ccc(C(=O)N2CCCC(C(=O)c3ccc(Oc4ccccc4)cc3)C2)cn1 (stereo unspecified),inconclusive: -57.1%
4,O=C(/C=C/Nc1ccc(OC(F)(F)F)cc1)C(F)(F)F,inactive: 8.66%
5,Cc1ccc(NC2Sc3ccccc3NC2=O)cc1 (stereo unspecified),inactive: 42.3%
6,N/C(=N\OC(=O)CCC1CCCC1)c1ccc(Br)cc1,inconclusive: -56.8%
7,O=C(Nc1ccc(F)cc1)Nc1cccc(Br)c1,active: -87.6%
8,Fc1cccc(-n2cc(-c3ccccc3)c3c(=S)nc[nH]c32)c1,inconclusive: 0%
9,Cn1c(N)c(C(=O)COC(=O)/C=C/c2ccc(Cl)cc2)c(=O)n(C)c1=O,inactive: -29.7%
10,CC(C(=O)Nc1ccccc1Br)c1ccc([N+](=O)[O-])cc1 (stereo unspecified),inconclusive: -42.7%
11,COc1ccccc1CNC(=O)CN(c1ccc(C)cc1)S(=O)(=O)c1c(C)n[nH]c1C,inconclusive: -42.4%
12,Cc1nc(N)ncc1C(=O)Nc1ccccc1,inconclusive: -53.2%
13,CC(=O)Nc1ccc(Oc2ccc(S(=O)(=O)N3CCCC3)cn2)cc1,inconclusive: -42.6%
14,Cc1ccc(S(=O)(=O)Nc2ccc3c(c2)C(=O)N([C@@H](C)CO)C[C@@H](C)[C@@H](CN(C)C(=O)NC2CCCCC2)OCCCC[C@H](C)O3)cc1,inactive: -3.69%
15,CCOc1ccccc1NS(=O)(=O)c1ccc(-c2cnc(C3CC3)o2)cc1,active: -92%
16,Cc1ccc(-n2ncc3c2CCCC3NC(=O)c2csnn2)cc1C (stereo unspecified),inconclusive: -43%
17,C[C@H](NC(=O)c1nc[nH]c1C(=O)N[C@@H](CCCCNC(=O)OC(C)(C)C)C(=O)OC(C)(C)C)C(=O)OCc1ccccc1,inactive: -29.5%
18,COc1ccc(S(=O)(=O)N(CC(=O)N2CCCCCC2)c2ccccc2OC)cc1,inconclusive: -55.6%
19,COc1ccc(N(CC(=O)Nc2ccc3c(c2)OCO3)S(=O)(=O)c2ccccc2)c(OC)c1,active: -68%
20,COc1ccc2nc(C)cc(SCC(=O)OC(C)C)c2c1,inconclusive: -45.2%

# A few values from the entries so far:
# CC(C(=O)Nc1ccccc1Br)c1ccc([N+](=O)[O-])cc1 (stereo unspecified) | activity change, negative = inhibition: inconclusive: -42.7%
# COc1ccc(S(=O)(=O)N(CC(=O)N2CCCCCC2)c2ccccc2OC)cc1 | activity change, negative = inhibition: inconclusive: -55.6%
# COc1ccccc1CNC(=O)CN(c1ccc(C)cc1)S(=O)(=O)c1c(C)n[nH]c1C | activity change, negative = inhibition: inconclusive: -42.4%
# CC(=O)Nc1ccc(Oc2ccc(S(=O)(=O)N3CCCC3)cn2)cc1 | activity change, negative = inhibition: inconclusive: -42.6%
